According to PubChem BioAssay AID248 (DTP/NCI, 2004):
The list shows only some results of the screen, not a fair sample: it is rich in T/C values a quarter to a half above the control, in often repeated tests (any T/C) and in doses without a T/C. Further doses and runs are listed elsewhere. T/C: endpoint of the treated group in % of that of the vehicle group. Some doses have a count of surviving animals in place of a T/C: the source files T/C as zero there, which appears to mark a toxic dose or a test without result, not a measured value. Some doses without a T/C left all or most animals alive at the check, yet need not have been tolerated: survival well below the control is almost never listed, so the zero probably covers shortened survival too. Survivors were counted at the toxicity check, usually on the fifth day, unless a day is given; later deaths do not show. Schedule codes are those of the source, taken here to give the interval after Q, in days (D) or hours (H), and the number of doses after X. Counts like (3×) give the number of equal values in this list. Some entries hold several experiments; their values stand side by side, smallest first.

System: L1210 leukemia ip in BDF1 mice, survival T/C
Experiment: NCI In Vivo Anticancer Drug Screen. Data for tumor model L1210 Leukemia (intraperitoneal) in B6D2F1 (BDF1) mice
Conditions: T/C endpoint: mean survival time, higher T/C = longer survival
[1] = dose: 100.0 mg/kg/injection, schedule: Q04DX002 (ip), vehicle: saline with Tween-80
[2] = dose: 200.0 mg/kg/injection, schedule: Q04DX002 (ip), vehicle: saline with Tween-80
[3] = dose: 400.0 mg/kg/injection, schedule: Q04DX002 (ip), vehicle: saline with Tween-80
[4] = dose: 200.0 mg/kg/injection, schedule: Q01DX001 (ip), vehicle: saline
[5] = dose: 400.0 mg/kg/injection, schedule: Q01DX001 (ip), vehicle: saline
[6] = dose: 200.0 mg/kg/injection, schedule: Q04DX003 (ip), vehicle: saline with Tween-80
[7] = dose: 400.0 mg/kg/injection, schedule: Q04DX003 (ip), vehicle: saline with Tween-80
[8] = dose: 400.0 mg/kg/injection, schedule: Q01DX009 (ip), vehicle: saline with Tween-80
[9] = dose: 400.0 mg/kg/injection, schedule: Q04DX002 (ip), vehicle: Klucel (hydroxypropylcellulose) (HPC)
[10] = dose: 400.0 mg/kg/injection, schedule: Q04DX003 (ip), vehicle: saline
[11] = dose: 200.0 mg/kg/injection, schedule: Q01DX001 (ip), vehicle: carboxymethylcellulose (CMC)
[12] = dose: 400.0 mg/kg/injection, schedule: Q01DX001 (ip), vehicle: carboxymethylcellulose (CMC)

## CNC(=O)NN
[1]
  survivor count: 1 of 3
[2]
  survivor count: 0 of 3
[3]
  survivor count: 0 of 3

## CC(=O)Oc1ccc(OC(C)=O)c2c1C(=O)C=CC2=O
dose: 12.5 mg/kg/injection, schedule: Q04DX002 (ip), vehicle: alcohol
  survivor count: 0 of 3
dose: 25.0 mg/kg/injection, schedule: Q04DX002 (ip), vehicle: alcohol
  survivor count: 1 of 3
[4]
  survivor count: 3 of 6
[5]
  survivor count: 0 of 6

## O=C1CN=C(c2ccccc2Cl)c2cc(Cl)ccc2N1
dose: 400.0 mg/kg/injection, schedule: Q04DX003 (ip), vehicle: Klucel (hydroxypropylcellulose) (HPC)
  survivor count: 2 of 4

## c1ccc(-c2csc3cccc[n+]23)cc1
[6]
  survivor count: 0 of 6
[7]
  survivor count: 0 of 6

## CCOC(=O)CNC(=O)Oc1cccc2cccnc12
[8]
  survivor count: 3 of 6

## CCCCCCCCCCCCCCCCCC[n+]1cccc(C(=O)c2ccccc2)c1
dose: 75.0 mg/kg/injection, schedule: Q01DX001 (ip), vehicle: other
  survivor count: 1 of 6
dose: 150.0 mg/kg/injection, schedule: Q01DX001 (ip), vehicle: other
  survivor count: 0 of 6
dose: 300.0 mg/kg/injection, schedule: Q01DX001 (ip), vehicle: other
  survivor count: 0 of 6

## C[C@H]1/C(=C/C(=O)OCCN(C)C)CC[C@H]2[C@H]1C(=O)C[C@H]1C(C)(C)[C@@H](O)CC[C@]21C
dose: 40.0 mg/kg/injection, schedule: Q01DX001 (ip), vehicle: other
  survivor count: 0 of 6
dose: 80.0 mg/kg/injection, schedule: Q01DX001 (ip), vehicle: other
  survivor count: 0 of 6
dose: 100.0 mg/kg/injection, schedule: Q01DX001 (ip), vehicle: other
  survivor count: 0 of 6
dose: 200.0 mg/kg/injection, schedule: Q01DX001 (ip), vehicle: other
  survivor count: 0 of 6
dose: 400.0 mg/kg/injection, schedule: Q01DX001 (ip), vehicle: other
  survivor count: 0 of 6

## c1ccc2c(c1)Cc1ccccc1CN(CCNC1=NCCN1)C2
dose: 100.0 mg/kg/injection, schedule: Q01DX009 (ip), vehicle: saline with Tween-80
  survivor count: 3 of 6
[6]
  survivor count: 0 of 6
[7]
  survivor count: 0 of 6

## C[n+]1c(-c2cccc3ccccc23)c2cc([N+](=O)[O-])ccc2c2ccccc21
dose: 25.0 mg/kg/injection, schedule: Q01DX009 (ip), vehicle: water
  survivor count: 3 of 6
dose: 50.0 mg/kg/injection, schedule: Q01DX009 (ip), vehicle: water
  survivor count: 0 of 6
dose: 100.0 mg/kg/injection, schedule: Q04DX003 (ip), vehicle: water
  survivor count: 0 of 6
dose: 200.0 mg/kg/injection, schedule: Q04DX003 (ip), vehicle: water
  survivor count: 0 of 6
dose: 400.0 mg/kg/injection, schedule: Q04DX003 (ip), vehicle: water
  survivor count: 0 of 6

## Cc1cc(C)c(CS)c(C)c1
dose: 100.0 mg/kg/injection, schedule: Q04DX002 (ip), vehicle: Klucel (hydroxypropylcellulose) (HPC)
  survivor count: 3 of 3

## COc1ccccc1Cl
[8]
  survivor count: 6 of 6

## OC(C#CC(O)c1ccccc1)c1ccccc1 (configuration not stated)
dose: 400.0 mg/kg/injection, schedule: Q01DX009 (ip), vehicle: saline
  survivor count: 3 of 6

## ClCC1=Nc2c(Cl)ncnc2NN1
dose: 50.0 mg/kg/injection, schedule: Q01DX001 (ip), vehicle: saline with Tween-80
  survivor count: 2 of 6
dose: 100.0 mg/kg/injection, schedule: Q01DX001 (ip), vehicle: saline with Tween-80
  survivor count: 0 of 6
dose: 200.0 mg/kg/injection, schedule: Q01DX001 (ip), vehicle: saline with Tween-80
  survivor count: 0 of 6
dose: 400.0 mg/kg/injection, schedule: Q01DX001 (ip), vehicle: saline with Tween-80
  survivor count: 0 of 6

## CCOC(=O)c1ccc(NC(=O)c2cccc(Cl)c2)cc1
dose: 200.0 mg/kg/injection, schedule: Q04DX002 (ip), vehicle: Klucel (hydroxypropylcellulose) (HPC)
  survivor count: 3 of 3
[9]
  survivor count: 3 of 3

## Cc1cccc(NCC(=O)NN)c1
[9]
  survivor count: 3 of 3

## NC(CSC1(c2ccc(Cl)cc2)c2ccccc2-c2ccccc21)C(=O)O (configuration not stated)
dose: 200.0 mg/kg/injection, schedule: Q01DX009 (ip), vehicle: other
  survivor count: 1 of 6

## CN(C)[C](=O)[Pb]([c]1ccccc1)([c]1ccccc1)[c]1ccccc1
[3]
  survivor count: 3 of 3

## C[N+]1(C2CCC3CCC2C3O)CCOCC1 (configuration not stated)
dose: 200.0 mg/kg/injection, schedule: Q01DX009 (ip), vehicle: saline
  survivor count: 2 of 6
[10]
  survivor count: 0 of 6 (2×)

## CCC(C)C(CN)(CCN(C)C)Cc1cccc2ccccc12 (configuration not stated)
dose: 100.0 mg/kg/injection, schedule: Q04DX003 (ip), vehicle: saline with Tween-80
  survivor count: 3 of 6
[6]
  survivor count: 0 of 6
[7]
  survivor count: 0 of 6

## CSCC(C)(C)NC(=O)NCCCl
[9]
  survivor count: 3 of 3

## C/C(=C1/SC(=S)NC1=O)c1ccccc1
[4]
  survivor count: 1 of 6
[5]
  survivor count: 1 of 6

## CCCCCCCC(=O)[O][Pb]([CH2]C)([CH2]C)[CH2]C
dose: 25.0 mg/kg/injection, schedule: Q04DX002 (ip), vehicle: DMSO
  survivor count: 0 of 3
dose: 50.0 mg/kg/injection, schedule: Q04DX002 (ip), vehicle: DMSO
  survivor count: 0 of 3
dose: 100.0 mg/kg/injection, schedule: Q04DX002 (ip), vehicle: DMSO
  survivor count: 0 of 3
dose: 200.0 mg/kg/injection, schedule: Q04DX002 (ip), vehicle: DMSO
  survivor count: 0 of 3
dose: 400.0 mg/kg/injection, schedule: Q04DX002 (ip), vehicle: DMSO
  survivor count: 0 of 3

## CCN(CC)CC(=O)NCC(C)(CCN1CCCCC1)c1cccc2ccccc12 (configuration not stated)
dose: 100.0 mg/kg/injection, schedule: Q01DX009 (ip), vehicle: saline
  survivor count: 0 of 6
dose: 200.0 mg/kg/injection, schedule: Q04DX003 (ip), vehicle: saline
  survivor count: 5 of 6
[10]
  survivor count: 0 of 6

## CCN(C(C)C)C(C)C
[6]
  survivor count: 0 of 6
[7]
  survivor count: 0 of 6

## Cc1nc(N)sc1C
[1]
  survivor count: 1 of 5

## CC(C)CN(CC(C)C)C(=O)CCl
[11]
  survivor count: 1 of 4
[12]
  survivor count: 0 of 4

## CCCCCCCC/C=C\CCCCCCCCN1CC(C(=O)[O][Pb]([CH2]C)([CH2]C)[CH2]C)CC1=O (configuration not stated)
dose: 12.5 mg/kg/injection, schedule: Q01DX009 (ip), vehicle: saline with Tween-80
  survivor count: 3 of 3
dose: 25.0 mg/kg/injection, schedule: Q01DX009 (ip), vehicle: saline with Tween-80
  survivor count: 0 of 3
dose: 50.0 mg/kg/injection, schedule: Q04DX002 (ip), vehicle: saline with Tween-80
  survivor count: 0 of 3
[1]
  survivor count: 0 of 3
[2]
  survivor count: 0 of 3
[3]
  survivor count: 0 of 3

## CCOC(=O)C(CC)C1=CCCCC1 (configuration not stated)
[8]
  survivor count: 6 of 6

## CCCCCCCCNCCOC(=O)c1ccc(N(CC)CC)cc1
dose: 300.0 mg/kg/injection, schedule: Q01DX001 (ip), vehicle: carboxymethylcellulose (CMC)
  survivor count: 1 of 6

## CC(C)(C)CC(C)(C)c1ccc(OCCOCCSC(=N)N)cc1
[11]
  survivor count: 2 of 4
[12]
  survivor count: 0 of 4

## O=C(O)c1cc([N+](=O)[O-])cc(P(=O)(O)O)c1
dose: 100.0 mg/kg/injection, schedule: Q01DX001 (ip), vehicle: saline
  survivor count: 6 of 6
[4]
  survivor count: 6 of 6
[5]
  survivor count: 6 of 6

## CCN(CC)CC(=O)NCC(CCN(C)C)(c1cccc2ccccc12)C(C)C (configuration not stated)
[10]
  survivor count: 0 of 6

## Oc1ccc2ccccc2c1-c1nc2ccccc2s1
dose: 100.0 mg/kg/injection, schedule: Q04DX003 (ip), vehicle: other
  survivor count: 0 of 3 and 1 of 3
dose: 200.0 mg/kg/injection, schedule: Q04DX003 (ip), vehicle: other
  survivor count: 0 of 3
dose: 400.0 mg/kg/injection, schedule: Q04DX003 (ip), vehicle: other
  survivor count: 0 of 3
